According to article doi:10.1101/658492:
Read-outs that look alike come from different tables or passages of the source. These are yes or no findings as the source states them, for the method shown. Binding seen in cells or lysates may run through a third protein. Some results given as binding are weak or reduced against the parent protein; the word gives no strength.

Sequences of proteins named here, by UniProt entry; tags and fusion partners are left off.
UniProt Q6KC79: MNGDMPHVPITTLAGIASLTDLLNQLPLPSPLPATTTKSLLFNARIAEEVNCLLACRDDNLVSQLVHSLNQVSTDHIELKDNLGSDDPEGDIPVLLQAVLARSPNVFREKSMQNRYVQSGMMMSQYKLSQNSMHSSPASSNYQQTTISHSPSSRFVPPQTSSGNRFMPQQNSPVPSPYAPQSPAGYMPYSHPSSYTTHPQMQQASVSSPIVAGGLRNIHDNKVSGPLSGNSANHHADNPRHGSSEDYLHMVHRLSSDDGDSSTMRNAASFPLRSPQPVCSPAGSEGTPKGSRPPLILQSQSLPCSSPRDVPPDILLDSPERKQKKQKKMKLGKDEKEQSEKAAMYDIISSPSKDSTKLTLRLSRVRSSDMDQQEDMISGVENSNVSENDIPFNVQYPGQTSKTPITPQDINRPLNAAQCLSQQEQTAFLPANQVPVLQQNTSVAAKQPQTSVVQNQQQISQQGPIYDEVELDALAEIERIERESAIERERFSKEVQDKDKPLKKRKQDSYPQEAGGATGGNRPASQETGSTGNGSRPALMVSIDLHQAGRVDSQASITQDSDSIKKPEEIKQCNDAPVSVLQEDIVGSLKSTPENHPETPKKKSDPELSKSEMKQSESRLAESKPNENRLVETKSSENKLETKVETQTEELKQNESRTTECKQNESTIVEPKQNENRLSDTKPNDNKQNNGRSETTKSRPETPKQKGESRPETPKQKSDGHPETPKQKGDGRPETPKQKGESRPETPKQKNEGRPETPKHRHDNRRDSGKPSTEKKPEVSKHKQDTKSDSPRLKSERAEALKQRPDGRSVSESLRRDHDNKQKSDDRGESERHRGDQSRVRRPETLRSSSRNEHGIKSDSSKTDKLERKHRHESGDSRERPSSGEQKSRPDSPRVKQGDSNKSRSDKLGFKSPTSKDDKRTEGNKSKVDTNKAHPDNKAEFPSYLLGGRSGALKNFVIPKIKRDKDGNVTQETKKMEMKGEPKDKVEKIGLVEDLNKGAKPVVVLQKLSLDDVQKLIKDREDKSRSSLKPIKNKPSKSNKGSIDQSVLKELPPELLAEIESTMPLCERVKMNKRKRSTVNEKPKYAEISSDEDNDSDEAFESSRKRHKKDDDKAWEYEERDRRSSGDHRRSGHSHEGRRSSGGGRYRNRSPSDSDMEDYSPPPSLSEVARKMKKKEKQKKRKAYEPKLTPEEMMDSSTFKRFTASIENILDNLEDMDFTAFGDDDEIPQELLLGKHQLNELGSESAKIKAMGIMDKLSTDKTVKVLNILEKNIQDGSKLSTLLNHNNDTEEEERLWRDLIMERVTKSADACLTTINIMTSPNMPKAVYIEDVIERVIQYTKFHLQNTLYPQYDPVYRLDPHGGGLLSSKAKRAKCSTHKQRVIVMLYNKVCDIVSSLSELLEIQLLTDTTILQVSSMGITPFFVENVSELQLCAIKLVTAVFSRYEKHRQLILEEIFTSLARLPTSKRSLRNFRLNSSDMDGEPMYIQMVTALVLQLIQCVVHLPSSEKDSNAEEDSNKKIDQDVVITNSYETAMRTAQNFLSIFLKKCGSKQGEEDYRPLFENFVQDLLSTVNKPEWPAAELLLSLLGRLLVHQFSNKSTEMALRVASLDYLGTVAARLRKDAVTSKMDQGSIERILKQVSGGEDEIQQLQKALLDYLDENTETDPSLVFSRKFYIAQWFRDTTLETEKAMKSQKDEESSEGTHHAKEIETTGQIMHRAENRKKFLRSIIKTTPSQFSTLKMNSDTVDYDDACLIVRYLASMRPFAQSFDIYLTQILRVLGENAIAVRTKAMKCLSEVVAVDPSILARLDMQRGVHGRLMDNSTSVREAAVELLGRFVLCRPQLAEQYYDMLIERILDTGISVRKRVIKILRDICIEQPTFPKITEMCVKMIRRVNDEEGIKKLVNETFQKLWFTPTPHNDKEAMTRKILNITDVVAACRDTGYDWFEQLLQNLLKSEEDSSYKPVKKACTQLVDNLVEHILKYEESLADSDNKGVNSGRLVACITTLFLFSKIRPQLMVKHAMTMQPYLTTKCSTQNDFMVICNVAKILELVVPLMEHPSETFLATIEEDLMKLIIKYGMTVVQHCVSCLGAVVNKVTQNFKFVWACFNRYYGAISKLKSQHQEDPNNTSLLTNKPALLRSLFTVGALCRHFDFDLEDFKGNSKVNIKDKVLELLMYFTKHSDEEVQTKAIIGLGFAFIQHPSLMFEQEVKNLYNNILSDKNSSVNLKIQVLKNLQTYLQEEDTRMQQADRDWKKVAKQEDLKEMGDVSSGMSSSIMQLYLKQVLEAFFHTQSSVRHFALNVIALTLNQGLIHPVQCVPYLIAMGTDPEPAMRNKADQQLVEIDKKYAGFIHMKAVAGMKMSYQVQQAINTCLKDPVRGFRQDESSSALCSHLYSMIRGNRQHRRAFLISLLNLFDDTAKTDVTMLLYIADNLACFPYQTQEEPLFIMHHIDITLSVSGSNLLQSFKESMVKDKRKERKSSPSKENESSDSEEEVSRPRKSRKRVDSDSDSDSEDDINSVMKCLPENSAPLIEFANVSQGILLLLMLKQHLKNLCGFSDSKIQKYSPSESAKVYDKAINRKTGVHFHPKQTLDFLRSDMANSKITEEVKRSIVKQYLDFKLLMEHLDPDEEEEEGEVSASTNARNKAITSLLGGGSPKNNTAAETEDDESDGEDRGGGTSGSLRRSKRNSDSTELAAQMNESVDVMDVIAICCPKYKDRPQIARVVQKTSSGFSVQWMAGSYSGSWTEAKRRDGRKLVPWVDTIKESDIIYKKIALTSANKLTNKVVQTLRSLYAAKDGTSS

Experiments:
Assay in all cases: co-IP
[1] = molecular target: NIPBL (human) (UniProt Q6KC79)
[2] = molecular target: NIPBL (human) (UniProt Q6KC79); remark: listed apart in the source
[3] = molecular target: FLAG-tagged full-length NIPBL (human) (UniProt Q6KC79)
[4] = molecular target: NIPBL (human) (UniProt Q6KC79); remark: listed apart in the source
[5] = molecular target: T1, Rad21 (UniProt O60216)
T1 sequence: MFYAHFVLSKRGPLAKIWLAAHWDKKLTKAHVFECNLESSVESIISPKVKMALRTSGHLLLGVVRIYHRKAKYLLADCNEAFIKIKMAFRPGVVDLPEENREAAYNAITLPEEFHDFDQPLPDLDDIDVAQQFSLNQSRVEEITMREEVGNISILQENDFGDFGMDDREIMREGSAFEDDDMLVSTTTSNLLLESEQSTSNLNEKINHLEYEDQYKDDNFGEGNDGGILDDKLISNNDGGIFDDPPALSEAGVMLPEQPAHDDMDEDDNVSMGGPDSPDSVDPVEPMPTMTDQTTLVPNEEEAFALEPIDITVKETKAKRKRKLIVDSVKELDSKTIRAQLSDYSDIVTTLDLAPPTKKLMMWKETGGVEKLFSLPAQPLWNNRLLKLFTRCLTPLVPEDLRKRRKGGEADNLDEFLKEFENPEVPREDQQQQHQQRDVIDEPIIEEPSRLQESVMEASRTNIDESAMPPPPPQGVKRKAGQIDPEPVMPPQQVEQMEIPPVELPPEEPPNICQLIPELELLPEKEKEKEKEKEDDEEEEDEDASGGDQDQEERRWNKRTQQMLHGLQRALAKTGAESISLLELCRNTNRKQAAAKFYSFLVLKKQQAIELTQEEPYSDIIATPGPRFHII

binding [1]: binds
binding [2]: binds
binding [3]: binds
binding [4]: binds
binding [5]: no binding
B1: treacle (protein, UniProt Q13428 1-1488)
chain: MAEARKRRELLPLIYHHLLRAGYVRAAREVKEQSGQKCFLAQPVTLLDIYTHWQQTSELGRKRKAEEDAALQAKKTRVSDPISTSESSEEEEEAEAETAKATPRLASTNSSVLGADLPSSMKEKAKAETEKAGKTGNSMPHPATGKTVANLLSGKSPRKSAEPSANTTLVSETEEEGSVPAFGAAAKPGMVSAGQADSSSEDTSSSSDETDVEGKPSVKPAQVKASSVSTKESPARKAAPAPGKVGDVTPQVKGGALPPAKRAKKPEEESESSEEGSESEEEAPAGTRSQVKASEKILQVRAASAPAKGTPGKGATPAPPGKAGAVASQTKAGKPEEDSESSSEESSDSEEETPAAKALLQAKASGKTSQVGAASAPAKESPRKGAAPAPPGKTGPAVAKAQAGKREEDSQSSSEESDSEEEAPAQAKPSGKAPQVRAASAPAKESPRKGAAPAPPRKTGPAAAQVQVGKQEEDSRSSSEESDSDREALAAMNAAQVKPLGKSPQVKPASTMGMGPLGKGAGPVPPGKVGPATPSAQVGKWEEDSESSSEESSDSSDGEVPTAVAPAQEKSLGNILQAKPTSSPAKGPPQKAGPVAVQVKAEKPMDNSESSEESSDSADSEEAPAAMTAAQAKPALKIPQTKACPKKTNTTASAKVAPVRVGTQAPRKAGTATSPAGSSPAVAGGTQRPAEDSSSSEESDSEEEKTGLAVTVGQAKSVGKGLQVKAASVPVKGSLGQGTAPVLPGKTGPTVTQVKAEKQEDSESSEEESDSEEAAASPAQVKTSVKKTQAKANPAAARAPSAKGTISAPGKVVTAAAQAKQRSPSKVKPPVRNPQNSTVLARGPASVPSVGKAVATAAQAQTGPEEDSGSSEEESDSEEEAETLAQVKPSGKTHQIRAALAPAKESPRKGAAPTPPGKTGPSAAQAGKQDDSGSSSEESDSDGEAPAAVTSAQVIKPPLIFVDPNRSPAGPAATPAQAQAASTPRKARASESTARSSSSESEDEDVIPATQCLTPGIRTNVVTMPTAHPRIAPKASMAGASSSKESSRISDGKKQEGPATQVSKKNPASLPLTQAALKVLAQKASEAQPPVARTQPSSGVDSAVGTLPATSPQSTSVQAKGTNKLRKPKLPEVQQATKAPESSDDSEDSSDSSSGSEEDGEGPQGAKSAHTLGPTPSRTETLVEETAAESSEDDVVAPSQSLLSGYMTPGLTPANSQASKATPKLDSSPSVSSTLAAKDDPDGKQEAKPQQAAGMLSPKTGGKEAASGTTPQKSRKPKKGAGNPQASTLALQSNITQCLLGQPWPLNEAQVQASVVKVLTELLEQERKKVVDTTKESSRKGWESRKRKLSGDQPAARTPRSKKKKKLGAGEGGEASVSPEKTSTTSKGKAKRDKASGDVKEKKGKGSLGSQGAKDEPEEELQKGMGTVEGGDQSNPKSKKEKKKSDKRKKDKEKKEKKKKAKKASTKDSESPSQKKKKKKKKTAEQTV
